Reference: patent US5173502A, “Substituted trifluoropropan-1-yl-imidazole alpha 2-receptor anagonists” (Adir et Compagnie, priority 1990, dated 1992)
pIC50: −log10 of the molar value. The name of at least one read-out is uncertain.

Columns and labels:
[1] = target: α2-receptors; experiment: In vitro affinity test for α2-receptors (binding, rat central nervous system microsomes); conditions: n=1, read-out: K0.5 in relation to the α2-receptors
[2] = target: α1-receptors; experiment: In vitro affinity test for α1-receptors (binding, rat central nervous system microsomes); conditions: read-out: K0.5 in relation to the α1-receptors

`Cl.FC(F)(F)C(Cc1c[nH]cn1)c1ccccc1` (centres unmarked) [Example 2, 4-(2-Phenyl-3,3,3-trifluoropropan-1-yl)-imidazole hydrochloride] gave a pIC50 [1] of roughly 7.30 and a pIC50 [2] of less than 4.00.
